From US20220025331A1, “METHODS AND SYSTEMS FOR IMPROVING CELLS FOR USE IN THERAPY” (priority 2017, published 2022)

What was measured:
P3 foAC neocartilage = assay: Phase 2: cytochalasin D and hyaluronidase treatment of P3 (passaged, not redifferentiated) neocartilage; assay type: cell-based, sheep; details: FIG. 12
Method: (§1) Chondrocyte Isolation: Fetal ovine articular chondrocytes (foACs) were harvested from the patellofemoral surfaces of 120-day gestation Dorper cross sheep obtained as medical waste (UC Davis School of Veterinary Medicine). Cartilage from the whole surface of both condyles and the trochlear groove was minced into approximately 1 mm^3 pieces, then washed and centrifuged (500 G for 5 minutes) three times with Dulbecco's Modified Eagle Medium containing 4.5 g/L glucose and GlutaMAX (DMEM; Gibco) and 2% (v/v) penicillin/streptomycin/fungizone (PSF; Lonza). The tissue was digested in 0.2% (w/v) collagenase type II (Worthington) in DMEM containing 3% (v/v) fetal bovine serum (FBS; Atlanta Biologicals) for 18 hours at 37° C. with gentle rocking. […]
(§2) Chondrocyte Expansion and Redifferentiation: Previously frozen P0 foACs were seeded in T-225 flasks at 1.5×10^4 cells/cm^2 and expanded in chemically defined chondrogenic medium (CHG medium) (DMEM containing 1% PSF, 1% ITS+ premix (BD Biosciences), 1% non-essential amino acids (Gibco), 100 nM dexamethasone (Sigma), 50 mg/mL ascorbate-2-phosphate (Sigma), 40 g/mL L-proline (Sigma), and […] sodium pyruvate (Sigma)) with 2% FBS and chondrogenically tuned TFP supplementation (1 ng/mL TGF-μ1, 5 ng/mL bFGF, 10 ng/mL PDGF; al from PeproTech). […] Following dissociation of the aggregates, cells were filtered through a 70 μm cell strainer and counted. […]

P3R foAC neocartilage = assay: Phase 2: cytochalasin D and hyaluronidase treatment of P3R (passaged, redifferentiated) neocartilage; assay type: cell-based, sheep; details: FIG. 8
Method: as §1, §2

hyaluronidase
construct morphology (P3 foAC neocartilage): rounded neocartilage with a diffuse void space in the center of the construct | construct morphology (P3R foAC neocartilage): formation of a diffuse void region in the center of the constructs
